# Record: PubChem BioAssay AID652243 (Drosophila RNAi Screening Center, 2013)
# Aim: 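Knock-downs that decrease or increase androgen receptor reporter signal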 (primary screen)
# Cells: Drosophila S2R+ cells
# Knock-down reagent: long dsRNA against Drosophila genes
# Timing: 72 h (48 h, then 24 h hormone)
# Conditions: synthetic androgen R1881 at 10 nM for 24 h
# Detection: 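Per-well raw luminescence of the androgen-driven firefly reporter and of the Renilla control, two replicates each, without normalisation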
# Reading the numbers: firefly reporter light: higher = more light from androgen-responsive reporter; Renilla control light: higher = more constitutive control signal (cell number, transfection)
# Hit rule: 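Hit when the log firefly-to-Renilla ratio dropped or increased by a fixed fold versus the mean of GFP or LacZ controls across duplicate plates; lowering cut given as 1.5 and as 3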
# Meaning of the calls: active = hit: reporter lowered or raised; inactive = no hit
# The deposit covers about 24,000 reagents; shown is a random part of those that have a named target and a result. Of all reagents, 246 (1%) were called active. 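Plates not normalised; calls are printed but the firefly/Renilla ratio behind them is not deposited; fold cut for lowering reported inconsistently.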 Raw values vary from plate to plate and are shown uncorrected. A number with no mark means an inactive call. Names joined by + are all predicted targets of the reagent. Not stated in the record: the amount of reagent.
gene knocked down,dsRNA,"firefly reporter light, replicate 1","firefly reporter light, replicate 2","Renilla control light, replicate 1","Renilla control light, replicate 2"
CG33454,DRSC22914,4.28e5,7.22e5,9.94e5,1.73e6
CG33454,DRSC26767,4.22e5,3.94e5,9.75e5,8.56e5
CG13245,DRSC02243,7.83e5,8.70e5,1.48e6,1.95e6
"mAChR-C (muscarinic Acetylcholine Receptor, C-type)",DRSC17890,2.43e5,2.98e5,3.48e6,3.51e6
"mAChR-C (muscarinic Acetylcholine Receptor, C-type)",DRSC27441,3.11e5,3.48e5,7.01e5,8.00e5
CG1421,DRSC03707,2.03e5,1.40e5,1.46e6,9.05e5
CG43894,DRSC10123,2.79e5,2.35e5,2.06e6,1.50e6
CG43894,DRSC25029,1.14e6,1.07e6,8.27e5,8.40e5
CG43894,DRSC38843,1.29e6,9.49e5,2.63e6,2.11e6
CG7888,DRSC10926,7.52e5,9.70e5,1.86e6,2.26e6
"POLDIP2 (Polymerase (DNA-directed), delta interacting protein 2)",DRSC12194,26771,60680,2.84e5,2.68e5
CG11693,DRSC14353,66952,61082,1.19e6,1.18e6
CG11693,DRSC28503,5.02e5,6.00e5,9.76e5,1.18e6
kud (kuduk),DRSC11086,2.61e5,2.12e5,2.36e6,1.92e6
CG8664,DRSC20116,4.03e5,2.81e5,2.58e6,2.63e6
CG14300,DRSC14779,2.90e5,2.26e5,3.50e6,3.30e6
Grasp65,DRSC10917,85458,70699,1.10e6,1.36e6
Grasp65,DRSC28969,5.08e5,4.74e5,1.31e6,1.07e6
CG5111,DRSC15717,1.99e5,2.61e5,2.06e6,1.94e6
CG12093,DRSC08252,8.19e5,4.99e5,1.54e6,1.34e6
bbx + waw,DRSC20575,51507,74207,4.83e5,5.61e5
bbx + waw,DRSC20589,1.86e5,1.97e5,6.63e5,5.59e5
"foxo (forkhead box, sub-group O)",DRSC13017,5468 (active),5932,25416,29068
"foxo (forkhead box, sub-group O)",DRSC15463,1.51e5,1.19e5,1.01e6,1.22e6
CG7634,DRSC11843,3.31e5,2.43e5,2.97e6,2.58e6
Oct-TyrR (Octopamine-Tyramine receptor),DRSC11883,2.62e5,2.08e5,2.17e6,2.69e6
CG34205,DRSC04149,3.41e5,3.54e5,2.65e6,2.24e6
CG34205,DRSC22823,6.52e5,1.12e6,1.33e6,2.34e6
CG7945,DRSC10934,1.08e6,9.12e5,1.57e6,1.80e6
CG4681,DRSC04481,2.43e5,1.81e5,1.40e6,1.08e6
CG4681,DRSC26116,3.26e5,2.97e5,7.00e5,6.76e5
vret (vreteno),DRSC15640,1.04e5,1.04e5,9.52e5,9.81e5
MED22 (Mediator complex subunit 22),DRSC18175,1.81e5,2.31e5,3.37e6,3.09e6
CG8673,DRSC03105,1.61e5,2.28e5,1.47e6,1.31e6
PIG-A (Phosphatidylinositol glycan anchor biosynthesis class A),DRSC06982,1.37e6,7.30e5,2.31e6,1.35e6
CG11162,DRSC19391,3.07e5,5.24e5,4.35e6,4.02e6
CG11162,DRSC22538,1.07e6,8.74e5,1.17e6,1.16e6
Orc2 (Origin recognition complex subunit 2),DRSC16776,46996,27410,4.10e5,2.09e5
CG15256,DRSC01940,1.61e5,1.47e5,1.72e6,2.00e6
CG5402,DRSC15792,3.24e5,2.56e5,2.37e6,2.37e6
CG5402,DRSC26273,4.26e5,4.56e5,1.06e6,1.12e6

6 entries from above, arranged by “firefly reporter light, replicate 1”, highest first.
gene knocked down,dsRNA,"firefly reporter light, replicate 1","firefly reporter light, replicate 2","Renilla control light, replicate 1","Renilla control light, replicate 2"
PIG-A (Phosphatidylinositol glycan anchor biosynthesis class A),DRSC06982,1.37e6,7.30e5,2.31e6,1.35e6
CG11162,DRSC22538,1.07e6,8.74e5,1.17e6,1.16e6
CG11162,DRSC19391,3.07e5,5.24e5,4.35e6,4.02e6
CG8673,DRSC03105,1.61e5,2.28e5,1.47e6,1.31e6
CG15256,DRSC01940,1.61e5,1.47e5,1.72e6,2.00e6
Orc2 (Origin recognition complex subunit 2),DRSC16776,46996,27410,4.10e5,2.09e5
